The structures appear in SMILES notation. The list shows only some results of the screen, not a fair sample: it is rich in T/C values a quarter to a half above the control, in often repeated tests (any T/C) and in doses without a T/C. Other doses and runs of a compound stand elsewhere. T/C: endpoint of the treated group in % of that of the vehicle group. Some entries give survivors of the animals treated and no T/C: the source files T/C as zero there, which appears to mark a toxic dose or a test without result, not a measured value. Some doses without a T/C left all or most animals alive at the check, yet need not have been tolerated: survival well below the control is almost never listed, so the zero probably covers shortened survival too. Counts of survivors are from the toxicity check (mostly the fifth day) where no day follows; animals may have died later. Schedule codes are those of the source, taken here to give the interval after Q, in days (D) or hours (H), and the number of doses after X. Counts like (3×) stand for listed records that agree. Where survival is the endpoint, this PubChem deposit counts one and a half times the control or more as active, and values a quarter to a half above the control carry no call in these data; other NCI protocols may use other cut-offs. Some entries hold several experiments; the results are listed from low to high. Some T/C values are followed by the survivors on the day toxicity was checked, most often the fifth; where none is given, no animal had died by that day.

The test system of the experiment is P388 leukemia ip, CD2F1 mice, survival T/C. As to the kind of experiment: NCI In Vivo Anticancer Drug Screen. Data for tumor model P388 Leukemia (intraperitoneal) in CD2F1 (CDF1) mice. The settings on record: T/C endpoint: median survival time, higher T/C = longer survival.
Where [1] appears, read: dose: 50.0 mg/kg/injection, schedule: Q01DX009 (ip), vehicle: water.
The mark [2] stands for this setting: dose: 100.0 mg/kg/injection, schedule: Q01DX009 (ip), vehicle: water.
Setting [3] is: dose: 200.0 mg/kg/injection, schedule: Q01DX009 (ip), vehicle: water.
[4] abbreviates: dose: 240.0 mg/kg/injection, schedule: Q01DX005 (ip), vehicle: saline with Tween-80.
The mark [5] stands for this setting: dose: 200.0 mg/kg/injection, schedule: Q01DX005 (ip), vehicle: saline.
Where [6] appears, read: dose: 60.0 mg/kg/injection, schedule: Q01DX005 (ip), vehicle: Klucel (hydroxypropylcellulose) (HPC).
The mark [7] stands for this setting: dose: 50.0 mg/kg/injection, schedule: Q04DX003 (ip), vehicle: water.

As for `N=C(N)c1ccc2[nH]c(/C=C/c3cc4ccc(C(=N)N)cc4o3)cc2c1`, the T/C by setting is: (dose: 12.5 mg/kg/injection, schedule: Q04DX003 (ip), vehicle: suspension in saline) 134 % of control; (dose: 25.0 mg/kg/injection, schedule: Q04DX003 (ip), vehicle: suspension in saline) 142 % of control; (dose: 50.0 mg/kg/injection, schedule: Q04DX003 (ip), vehicle: suspension in saline) 147 % of control [5 of 6 alive]. Also, the survivor count reads like this: (dose: 100.0 mg/kg/injection, schedule: Q04DX003 (ip), vehicle: suspension in saline) 4 of 6; (dose: 200.0 mg/kg/injection, schedule: Q04DX003 (ip), vehicle: suspension in saline) 2 of 6; (dose: 400.0 mg/kg/injection, schedule: Q04DX003 (ip), vehicle: suspension in saline) 0 of 6.
For the compound `O=C(O)/C=N/NS(=O)(=O)c1cccs1`, the T/C (dose: 25.0 mg/kg/injection, schedule: Q01DX009 (ip), vehicle: other) is 127 % of control; the T/C (dose: 25.0 mg/kg/injection, schedule: Q01DX009 (ip), vehicle: water) was 130 % of control; the T/C (dose: 50.0 mg/kg/injection, schedule: Q01DX009 (ip), vehicle: other) was 137 % of control; the T/C under setting [1] is 130 % of control; the T/C (dose: 100.0 mg/kg/injection, schedule: Q01DX009 (ip), vehicle: other) was 149 % of control; the T/C under setting [2] is 136 % of control. In addition, the survivor count is on record as 2 of 6 (dose: 200.0 mg/kg/injection, schedule: Q01DX009 (ip), vehicle: other); 4 of 6 under setting [3]; 1 of 6 (dose: 400.0 mg/kg/injection, schedule: Q01DX009 (ip), vehicle: other); 0 of 6 (dose: 400.0 mg/kg/injection, schedule: Q01DX009 (ip), vehicle: water).
On to `CC(C)(CCC(=O)O)C(=O)O`, for which the survivor count (dose: 100.0 mg/kg/injection, schedule: Q01DX009 (ip), vehicle: saline sonified) was 6 of 6.
For `Cc1ccc2no[n+]([O-])c2c1[N+](=O)[O-]`, the T/C runs as follows: (dose: 100.0 mg/kg/injection, schedule: Q01DX005 (ip), vehicle: saline with Tween-80) 139 % of control; (dose: 200.0 mg/kg/injection, schedule: Q01DX005 (ip), vehicle: saline with Tween-80) 140 % of control [4 of 5 alive]. The survivor count (dose: 400.0 mg/kg/injection, schedule: Q01DX005 (ip), vehicle: saline with Tween-80) is 0 of 6.
`COc1cc(NC(C)CCCN)c2nc(C)ccc2c1Oc1ccc(F)cc1` (stereo unspecified): the survivor count is given as 0 of 6 under setting [1], 0 of 6 under setting [2] and 0 of 6 under setting [3].
Take `Cc1ccc(S(=O)(=O)N/N=C/C(Br)=C(/Br)C(=O)O)cc1`: under “dose: 12.5 mg/kg/injection, schedule: Q01DX009 (ip), vehicle: distilled water + Tween-80”, the T/C was 136 and 137 % of control. Also, the survivor count (dose: 400.0 mg/kg/injection, schedule: Q01DX009 (ip), vehicle: distilled water + Tween-80) is on record as 1 of 6.
In the case of `CCCCCCCC(=O)C1C(=O)OC(C)(C)OC1=O`, under setting [4], the survivor count is 0 of 6.
Turning to `Cn1c(=O)c2[nH]c(C3COCCO3)nc2n(C)c1=O` (stereo unspecified), the survivor count (dose: 120.0 mg/kg/injection, schedule: Q01DX005 (ip), vehicle: saline with Tween-80) was 6 of 6.
As to `OC1CC2c3ccccc3C1c1cccc[n+]12` (stereo unspecified), the survivor count (dose: 100.0 mg/kg/injection, schedule: Q01DX005 (ip), vehicle: saline) is reported as 1 of 5 and the survivor count under setting [5] is on record as 0 of 5.
As for `BrC1=CC(Br)=C2N=C(N3CCCC3)N=C3N=C(N4CCCC4)N=C1N32`, the survivor count is recorded as 6 of 6 (dose: 30.0 mg/kg/injection, schedule: Q01DX005 (ip), vehicle: Klucel + Tween-80); 6 of 6 (dose: 60.0 mg/kg/injection, schedule: Q01DX005 (ip), vehicle: Klucel + Tween-80); 5 of 6 (dose: 120.0 mg/kg/injection, schedule: Q01DX005 (ip), vehicle: Klucel + Tween-80); 2 of 6 (dose: 240.0 mg/kg/injection, schedule: Q01DX005 (ip), vehicle: Klucel + Tween-80).
In the case of `COC1(OC)C=NNc2nncn21`, under setting [5], the T/C is 126 % of control.
With `O=C1C2=C(Nc3cc([N+](=O)[O-])ccc3N2)OC1c1ccc2c(c1)OCO2` (stereo unspecified), the survivor count (dose: 15.0 mg/kg/injection, schedule: Q01DX005 (ip), vehicle: Klucel (hydroxypropylcellulose) (HPC)) is given as 6 of 6; the survivor count (dose: 30.0 mg/kg/injection, schedule: Q01DX005 (ip), vehicle: Klucel (hydroxypropylcellulose) (HPC)) is 6 of 6 (2×); the survivor count under setting [6] was 6 of 6; the survivor count (dose: 120.0 mg/kg/injection, schedule: Q01DX005 (ip), vehicle: Klucel (hydroxypropylcellulose) (HPC)) was 6 of 6. In addition, the T/C is 89 % of control (dose: 60.0 mg/kg/injection, schedule: Q01DX005 (ip), vehicle: Klucel (hydroxypropylcellulose) (HPC), evaluated on day 20) and 87 % of control (dose: 60.0 mg/kg/injection, schedule: Q01DX005 (ip), vehicle: Klucel (hydroxypropylcellulose) (HPC), evaluated on day 30).
For `COc1ccc(NC(=O)Oc2ccc(C#N)cc2)cc1`, the T/C under setting [6] is 127 % of control. The survivor count (dose: 240.0 mg/kg/injection, schedule: Q01DX005 (ip), vehicle: Klucel (hydroxypropylcellulose) (HPC)) was 5 of 6.
Consider `O=C(Nc1ccc(NC(=O)c2ccc(C3=NCCCN3)cc2)cc1)Nc1ccc(C2=NCCCN2)cc1`, for which the T/C (dose: 6.6 mg/kg/injection, schedule: Q01DX009 (ip), vehicle: saline with Tween-80) was 140 % of control and the T/C (dose: 15.0 mg/kg/injection, schedule: Q01DX009 (ip), vehicle: saline with Tween-80) is 136 % of control [5 of 6 alive]. In addition, the survivor count was 3 of 6 (dose: 40.0 mg/kg/injection, schedule: Q01DX009 (ip), vehicle: saline); 0 of 6 (dose: 100.0 mg/kg/injection, schedule: Q04DX003 (ip), vehicle: saline); 0 of 6 (dose: 200.0 mg/kg/injection, schedule: Q04DX003 (ip), vehicle: saline); 0 of 6 (dose: 400.0 mg/kg/injection, schedule: Q04DX003 (ip), vehicle: saline).
Regarding `O=[N+]([O-])C1(Cl)CCC(Cl)([N+](=O)[O-])CC1` (stereo unspecified), the survivor count (dose: 400.0 mg/kg/injection, schedule: Q01DX001 (ip), vehicle: Klucel (hydroxypropylcellulose) (HPC)) was 0 of 6.
On to `CC1(C)OC(=O)NC1c1ccccc1` (stereo unspecified), for which the survivor count runs as follows: (dose: 50.0 mg/kg/injection, schedule: Q01DX009 (ip), vehicle: saline with Tween-80) 2 of 6; (dose: 100.0 mg/kg/injection, schedule: Q01DX009 (ip), vehicle: saline with Tween-80) 0 of 6; (dose: 200.0 mg/kg/injection, schedule: Q01DX009 (ip), vehicle: saline with Tween-80) 0 of 6.
For `O=C(O)/C(Cl)=C(\Cl)C(=O)Nc1cccc([N+](=O)[O-])c1`, under setting [4], the survivor count is recorded as 2 of 6.
On to `COc1cccc2c1C(=O)c1c(O)c3c(c(O)c1C2=O)CC(O)(C(C)=O)CC3OC1CC(NCC2(O)OCC(O)C2O)C(O)C(C)O1` (stereo unspecified), for which the T/C under setting [7] is 137 % of control.
For the compound `Cn1cnc([N+](=O)[O-])c1Sc1ncnc2nc[nH]c12`, the T/C (dose: 360.0 mg/kg/injection, schedule: Q01DX001 (ip), vehicle: saline with Tween-80) is 136 % of control.
With `CC(=O)[C@]1(O)Cc2c(O)c3c(c(O)c2[C@@H](OC2CC(NC(=O)C(F)(F)F)C(O)C(C)O2)C1)C(=O)c1c(O)cccc1C3=O` (stereo partly specified), under setting [7], the T/C was 144 % of control.

The values are drawn from PubChem BioAssay AID330 (DTP/NCI, 2004).
